Article PMC13378934
No constants are given. Whether binding was seen depends on the method and setting. Binding seen in cells or lysates may run through a third protein. A yes stands for co-enrichment or nearness to the bait. Other partners may have been found. Tags and fused reporters may be left off the sequences shown.

The chains behind the UniProt entries cited, without tags or fusion partners.
UniProt Q9JMH9: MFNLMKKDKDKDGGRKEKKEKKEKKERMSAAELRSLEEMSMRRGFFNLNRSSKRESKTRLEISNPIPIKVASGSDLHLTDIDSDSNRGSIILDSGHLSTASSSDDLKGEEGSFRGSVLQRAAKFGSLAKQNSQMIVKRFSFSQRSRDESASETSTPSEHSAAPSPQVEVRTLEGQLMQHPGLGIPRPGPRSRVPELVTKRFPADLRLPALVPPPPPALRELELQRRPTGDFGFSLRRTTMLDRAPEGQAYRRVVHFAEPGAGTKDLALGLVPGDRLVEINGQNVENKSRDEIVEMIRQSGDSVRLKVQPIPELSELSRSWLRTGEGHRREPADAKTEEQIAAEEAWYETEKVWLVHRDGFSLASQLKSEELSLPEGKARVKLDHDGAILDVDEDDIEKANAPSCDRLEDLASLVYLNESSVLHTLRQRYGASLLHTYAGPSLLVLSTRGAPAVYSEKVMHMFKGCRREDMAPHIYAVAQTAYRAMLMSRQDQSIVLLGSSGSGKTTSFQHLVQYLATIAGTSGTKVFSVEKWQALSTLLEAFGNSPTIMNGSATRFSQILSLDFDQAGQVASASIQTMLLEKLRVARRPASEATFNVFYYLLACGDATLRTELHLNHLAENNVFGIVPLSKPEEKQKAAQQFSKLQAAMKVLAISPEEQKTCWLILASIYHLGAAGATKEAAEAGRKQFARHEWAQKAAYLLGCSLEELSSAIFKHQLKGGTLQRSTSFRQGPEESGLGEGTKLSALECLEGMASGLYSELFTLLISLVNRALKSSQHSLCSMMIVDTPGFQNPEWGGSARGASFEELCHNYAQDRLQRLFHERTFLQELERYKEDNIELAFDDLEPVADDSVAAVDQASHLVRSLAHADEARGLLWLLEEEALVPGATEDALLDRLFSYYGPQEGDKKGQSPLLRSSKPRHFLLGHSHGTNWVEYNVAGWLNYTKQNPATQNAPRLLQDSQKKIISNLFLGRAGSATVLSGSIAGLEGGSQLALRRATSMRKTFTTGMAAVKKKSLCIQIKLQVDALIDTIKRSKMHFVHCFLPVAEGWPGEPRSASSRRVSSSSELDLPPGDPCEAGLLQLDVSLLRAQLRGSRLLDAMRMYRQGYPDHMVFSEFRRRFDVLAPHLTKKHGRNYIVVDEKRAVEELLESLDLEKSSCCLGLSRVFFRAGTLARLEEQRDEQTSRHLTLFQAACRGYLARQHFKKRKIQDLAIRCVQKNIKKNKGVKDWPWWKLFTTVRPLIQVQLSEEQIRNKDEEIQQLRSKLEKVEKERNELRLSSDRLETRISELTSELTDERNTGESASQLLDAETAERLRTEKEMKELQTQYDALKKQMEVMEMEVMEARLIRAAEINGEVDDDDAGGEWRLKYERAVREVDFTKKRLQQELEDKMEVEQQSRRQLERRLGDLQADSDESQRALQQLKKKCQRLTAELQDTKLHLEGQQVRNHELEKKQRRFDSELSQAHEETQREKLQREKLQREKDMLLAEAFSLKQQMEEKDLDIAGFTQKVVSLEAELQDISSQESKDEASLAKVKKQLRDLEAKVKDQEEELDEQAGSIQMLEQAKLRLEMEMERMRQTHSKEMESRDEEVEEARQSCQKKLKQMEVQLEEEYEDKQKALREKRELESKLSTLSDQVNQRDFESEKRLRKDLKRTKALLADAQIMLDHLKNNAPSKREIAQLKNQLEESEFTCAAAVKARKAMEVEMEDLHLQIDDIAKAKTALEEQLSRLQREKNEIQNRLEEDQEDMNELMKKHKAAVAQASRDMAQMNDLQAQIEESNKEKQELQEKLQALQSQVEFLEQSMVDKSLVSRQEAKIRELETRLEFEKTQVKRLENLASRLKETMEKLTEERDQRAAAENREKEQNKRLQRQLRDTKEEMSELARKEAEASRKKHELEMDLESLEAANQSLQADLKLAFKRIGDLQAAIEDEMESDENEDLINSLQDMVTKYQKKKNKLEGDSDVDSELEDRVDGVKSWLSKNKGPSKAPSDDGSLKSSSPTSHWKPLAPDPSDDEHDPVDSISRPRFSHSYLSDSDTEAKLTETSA

T1: Flag-CARD19 (caspase activation and recruitment domain 19) (UniProt Q9D1I2)
T1 sequence: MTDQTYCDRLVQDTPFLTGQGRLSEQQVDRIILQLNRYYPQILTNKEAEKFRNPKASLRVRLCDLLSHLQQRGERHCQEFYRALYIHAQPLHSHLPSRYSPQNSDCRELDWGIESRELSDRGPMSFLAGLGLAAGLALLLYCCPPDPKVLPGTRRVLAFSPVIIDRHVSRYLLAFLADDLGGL

B1: sorting and assembly machinery component 50 (SAMM50) (protein, UniProt Q8BGH2 1-469)
chain: MGTVHARSLEPLPSSGTDFGALGEEAEFVEVEPEAKQEILENKDVVVQHVHFDGLGRTKDDIIICEIGEVFKAKNLIEVMRRSHEAREKLLRLGIFRQVDVLIDTCHGEDALPNGLDVTFEVTELRRLTGSYNTMVGNNEGSMVLGLKLPNLLGRAEKVTFQFSYGTKETSYGLSFFKPQPGNFERNFSVNLYKVTGQFPWSSLRETDRGVSAEYSFPLWKTSHTVKWEGVWRELGCLSRTASFAVRKESGHSLKSSLSHAMVIDSRNSSILPRRGALFKVNQELAGYTGGDVSFIKEDFELQLNKPLALDSVFSTSLWGGMLVPIGDKPSSIADRFYLGGPTSVRGFSMHSIGPQSEGDYLGGEAYWAGGLHLYTPLPFRPGQGGFGELFRTHFFLNAGNLCNLNYGEGPKAHIRKLAECIRWSYGAGVVLRLGNIARLELNYCIPMGVQGGDRICDGVQFGAGIRFL
B2: mitochondrial inner membrane protein 19 (MIC19) (protein, UniProt Q9CRB9 1-227)
chain: MGGTASTRRVTFEADENENITVVKGIRLSENVIDRMKESSPSGSKSQRYSSVYGASVSDEDLKRRVAEELALEQAKKESEHQRRLKQARDLERERAAANEQLTRAVLRERISSEEERMKAKHLARQLEEKDRVMRKQDAFYKEQLARLEERSSEFYKVTTEEYQKAAEEVEAKFKRYEYHPVCADLQTKILQCYRQNTQQTLSCSALASQYMHCVNHAKQSMLEKGG

Biological target: T1, Flag-CARD19 (caspase activation and recruitment domain 19)
Test: affinity purification with mass spectrometry; co-immunoprecipitated proteins from BV2 cells, SDS-PAGE, Coomassie staining, nano-HPLC and Q-Exactive MS, MaxQuant search of the UniProt Mus musculus database; precipitating antibody not stated for this experiment

Molecule | binding
Myo18a (from UniProt Q9JMH9 1-2050) | binds
B1 | binds
B2 | binds
